± gives the standard deviation of the averaged measurements. Only a part is listed here, and it is no random draw. Most entries show no effect beyond the scatter of the controls.

By UniProt entry, the sequences of proteins in these tests, tags left out. Where a name states a change or a piece, a line headed by the entry shows the natural chain unless it says otherwise.
UniProt Q9NX40: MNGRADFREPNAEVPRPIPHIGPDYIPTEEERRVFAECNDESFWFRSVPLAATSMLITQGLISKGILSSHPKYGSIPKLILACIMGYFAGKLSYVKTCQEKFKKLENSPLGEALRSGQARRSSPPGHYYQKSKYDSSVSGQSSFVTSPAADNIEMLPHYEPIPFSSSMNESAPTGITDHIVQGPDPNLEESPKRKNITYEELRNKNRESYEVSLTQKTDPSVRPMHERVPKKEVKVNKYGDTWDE
UniProt Q9NR19, whole entry: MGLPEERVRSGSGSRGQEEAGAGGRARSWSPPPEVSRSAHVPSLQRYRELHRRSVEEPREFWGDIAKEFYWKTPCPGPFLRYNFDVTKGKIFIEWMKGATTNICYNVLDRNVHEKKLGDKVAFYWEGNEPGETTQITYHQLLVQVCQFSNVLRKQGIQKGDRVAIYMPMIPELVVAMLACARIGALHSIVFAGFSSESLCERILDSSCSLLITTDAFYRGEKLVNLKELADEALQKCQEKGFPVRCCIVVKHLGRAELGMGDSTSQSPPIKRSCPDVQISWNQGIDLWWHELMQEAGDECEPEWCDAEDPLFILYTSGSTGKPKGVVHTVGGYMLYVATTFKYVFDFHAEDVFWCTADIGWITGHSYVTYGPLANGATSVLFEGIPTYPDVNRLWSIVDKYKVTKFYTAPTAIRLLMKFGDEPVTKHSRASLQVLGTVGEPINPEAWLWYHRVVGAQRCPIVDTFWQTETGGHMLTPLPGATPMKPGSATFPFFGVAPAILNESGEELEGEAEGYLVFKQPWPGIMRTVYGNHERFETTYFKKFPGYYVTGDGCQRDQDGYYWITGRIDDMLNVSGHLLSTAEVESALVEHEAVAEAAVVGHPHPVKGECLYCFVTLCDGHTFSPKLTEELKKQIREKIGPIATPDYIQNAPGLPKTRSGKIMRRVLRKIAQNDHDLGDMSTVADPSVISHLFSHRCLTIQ
UniProt Q9NVX2: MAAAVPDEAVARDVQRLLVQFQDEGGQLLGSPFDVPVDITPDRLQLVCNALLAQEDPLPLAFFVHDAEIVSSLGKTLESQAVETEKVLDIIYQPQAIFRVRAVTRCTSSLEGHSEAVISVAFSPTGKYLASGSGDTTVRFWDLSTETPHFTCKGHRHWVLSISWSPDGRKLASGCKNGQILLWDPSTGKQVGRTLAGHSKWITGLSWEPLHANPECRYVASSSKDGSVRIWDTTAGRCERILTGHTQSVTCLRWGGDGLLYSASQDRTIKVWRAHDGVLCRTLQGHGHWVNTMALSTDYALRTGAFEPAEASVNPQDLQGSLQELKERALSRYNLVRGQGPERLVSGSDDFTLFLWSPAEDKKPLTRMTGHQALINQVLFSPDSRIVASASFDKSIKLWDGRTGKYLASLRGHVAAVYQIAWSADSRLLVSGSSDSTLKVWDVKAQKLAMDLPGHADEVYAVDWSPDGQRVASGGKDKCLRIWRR
UniProt Q9NZ45: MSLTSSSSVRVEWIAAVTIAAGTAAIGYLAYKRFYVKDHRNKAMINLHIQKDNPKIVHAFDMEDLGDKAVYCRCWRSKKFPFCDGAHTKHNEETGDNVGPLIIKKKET
UniProt Q9NW13: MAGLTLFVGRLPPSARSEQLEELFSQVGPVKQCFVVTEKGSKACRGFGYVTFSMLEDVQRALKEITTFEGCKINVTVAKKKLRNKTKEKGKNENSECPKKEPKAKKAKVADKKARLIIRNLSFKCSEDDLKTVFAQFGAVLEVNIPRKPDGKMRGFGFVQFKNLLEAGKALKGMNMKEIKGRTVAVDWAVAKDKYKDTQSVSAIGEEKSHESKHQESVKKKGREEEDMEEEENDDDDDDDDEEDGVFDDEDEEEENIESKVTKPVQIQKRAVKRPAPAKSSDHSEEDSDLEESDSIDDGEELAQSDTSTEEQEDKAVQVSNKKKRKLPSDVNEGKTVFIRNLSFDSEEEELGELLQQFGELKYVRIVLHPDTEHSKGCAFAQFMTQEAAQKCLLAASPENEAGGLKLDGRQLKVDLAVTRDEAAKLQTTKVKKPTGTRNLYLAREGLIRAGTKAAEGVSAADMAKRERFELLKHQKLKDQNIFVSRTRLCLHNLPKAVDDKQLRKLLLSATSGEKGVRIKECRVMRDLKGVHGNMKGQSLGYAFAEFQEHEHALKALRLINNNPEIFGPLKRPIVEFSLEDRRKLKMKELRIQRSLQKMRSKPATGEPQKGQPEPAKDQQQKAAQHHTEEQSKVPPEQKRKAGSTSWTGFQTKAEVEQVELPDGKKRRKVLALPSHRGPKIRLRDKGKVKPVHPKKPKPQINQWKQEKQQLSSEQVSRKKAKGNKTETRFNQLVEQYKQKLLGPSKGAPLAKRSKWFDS
UniProt Q9NQZ5: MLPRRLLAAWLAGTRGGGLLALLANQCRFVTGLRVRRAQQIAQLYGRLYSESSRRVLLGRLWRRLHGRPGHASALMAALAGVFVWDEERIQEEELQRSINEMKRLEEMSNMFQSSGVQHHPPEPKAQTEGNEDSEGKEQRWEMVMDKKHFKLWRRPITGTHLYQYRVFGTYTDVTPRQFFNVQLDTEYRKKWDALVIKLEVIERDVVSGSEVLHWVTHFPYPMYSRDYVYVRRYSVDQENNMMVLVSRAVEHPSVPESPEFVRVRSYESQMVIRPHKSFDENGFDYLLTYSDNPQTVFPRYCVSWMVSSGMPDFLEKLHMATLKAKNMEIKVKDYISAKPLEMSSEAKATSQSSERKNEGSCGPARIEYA
UniProt Q9P000, whole entry: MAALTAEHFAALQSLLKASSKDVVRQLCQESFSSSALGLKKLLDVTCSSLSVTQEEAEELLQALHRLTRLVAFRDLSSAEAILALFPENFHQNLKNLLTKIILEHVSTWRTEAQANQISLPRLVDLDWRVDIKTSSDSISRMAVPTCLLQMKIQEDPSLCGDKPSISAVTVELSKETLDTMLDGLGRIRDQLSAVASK
UniProt Q9NZL4: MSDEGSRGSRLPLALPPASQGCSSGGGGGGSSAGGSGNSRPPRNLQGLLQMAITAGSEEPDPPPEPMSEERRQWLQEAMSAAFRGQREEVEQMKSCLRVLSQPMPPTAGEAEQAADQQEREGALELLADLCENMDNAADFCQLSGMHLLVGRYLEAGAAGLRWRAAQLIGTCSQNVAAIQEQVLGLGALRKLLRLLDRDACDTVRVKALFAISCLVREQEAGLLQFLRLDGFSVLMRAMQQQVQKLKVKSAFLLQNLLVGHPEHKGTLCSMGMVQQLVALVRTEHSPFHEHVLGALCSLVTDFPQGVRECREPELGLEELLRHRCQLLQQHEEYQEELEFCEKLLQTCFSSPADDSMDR
UniProt Q9NX74: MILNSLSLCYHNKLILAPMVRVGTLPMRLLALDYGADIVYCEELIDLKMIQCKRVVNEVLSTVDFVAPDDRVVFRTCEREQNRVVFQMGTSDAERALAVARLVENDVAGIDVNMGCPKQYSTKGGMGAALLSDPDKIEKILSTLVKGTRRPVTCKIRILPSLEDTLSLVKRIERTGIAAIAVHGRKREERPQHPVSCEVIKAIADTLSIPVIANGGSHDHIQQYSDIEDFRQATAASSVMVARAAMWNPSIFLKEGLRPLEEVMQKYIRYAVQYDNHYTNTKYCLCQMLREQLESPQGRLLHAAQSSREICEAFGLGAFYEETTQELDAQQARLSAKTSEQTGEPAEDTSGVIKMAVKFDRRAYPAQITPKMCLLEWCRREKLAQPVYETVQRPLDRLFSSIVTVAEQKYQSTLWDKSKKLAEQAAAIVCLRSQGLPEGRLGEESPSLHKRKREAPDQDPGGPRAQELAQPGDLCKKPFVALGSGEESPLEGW
UniProt Q9NXF7, whole entry: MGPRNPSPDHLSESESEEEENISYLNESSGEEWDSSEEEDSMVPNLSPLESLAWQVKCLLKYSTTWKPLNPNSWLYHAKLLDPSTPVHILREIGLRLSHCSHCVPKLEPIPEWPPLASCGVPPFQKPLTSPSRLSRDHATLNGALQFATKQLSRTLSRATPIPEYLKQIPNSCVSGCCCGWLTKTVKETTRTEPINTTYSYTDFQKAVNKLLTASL
UniProt Q9NYU2: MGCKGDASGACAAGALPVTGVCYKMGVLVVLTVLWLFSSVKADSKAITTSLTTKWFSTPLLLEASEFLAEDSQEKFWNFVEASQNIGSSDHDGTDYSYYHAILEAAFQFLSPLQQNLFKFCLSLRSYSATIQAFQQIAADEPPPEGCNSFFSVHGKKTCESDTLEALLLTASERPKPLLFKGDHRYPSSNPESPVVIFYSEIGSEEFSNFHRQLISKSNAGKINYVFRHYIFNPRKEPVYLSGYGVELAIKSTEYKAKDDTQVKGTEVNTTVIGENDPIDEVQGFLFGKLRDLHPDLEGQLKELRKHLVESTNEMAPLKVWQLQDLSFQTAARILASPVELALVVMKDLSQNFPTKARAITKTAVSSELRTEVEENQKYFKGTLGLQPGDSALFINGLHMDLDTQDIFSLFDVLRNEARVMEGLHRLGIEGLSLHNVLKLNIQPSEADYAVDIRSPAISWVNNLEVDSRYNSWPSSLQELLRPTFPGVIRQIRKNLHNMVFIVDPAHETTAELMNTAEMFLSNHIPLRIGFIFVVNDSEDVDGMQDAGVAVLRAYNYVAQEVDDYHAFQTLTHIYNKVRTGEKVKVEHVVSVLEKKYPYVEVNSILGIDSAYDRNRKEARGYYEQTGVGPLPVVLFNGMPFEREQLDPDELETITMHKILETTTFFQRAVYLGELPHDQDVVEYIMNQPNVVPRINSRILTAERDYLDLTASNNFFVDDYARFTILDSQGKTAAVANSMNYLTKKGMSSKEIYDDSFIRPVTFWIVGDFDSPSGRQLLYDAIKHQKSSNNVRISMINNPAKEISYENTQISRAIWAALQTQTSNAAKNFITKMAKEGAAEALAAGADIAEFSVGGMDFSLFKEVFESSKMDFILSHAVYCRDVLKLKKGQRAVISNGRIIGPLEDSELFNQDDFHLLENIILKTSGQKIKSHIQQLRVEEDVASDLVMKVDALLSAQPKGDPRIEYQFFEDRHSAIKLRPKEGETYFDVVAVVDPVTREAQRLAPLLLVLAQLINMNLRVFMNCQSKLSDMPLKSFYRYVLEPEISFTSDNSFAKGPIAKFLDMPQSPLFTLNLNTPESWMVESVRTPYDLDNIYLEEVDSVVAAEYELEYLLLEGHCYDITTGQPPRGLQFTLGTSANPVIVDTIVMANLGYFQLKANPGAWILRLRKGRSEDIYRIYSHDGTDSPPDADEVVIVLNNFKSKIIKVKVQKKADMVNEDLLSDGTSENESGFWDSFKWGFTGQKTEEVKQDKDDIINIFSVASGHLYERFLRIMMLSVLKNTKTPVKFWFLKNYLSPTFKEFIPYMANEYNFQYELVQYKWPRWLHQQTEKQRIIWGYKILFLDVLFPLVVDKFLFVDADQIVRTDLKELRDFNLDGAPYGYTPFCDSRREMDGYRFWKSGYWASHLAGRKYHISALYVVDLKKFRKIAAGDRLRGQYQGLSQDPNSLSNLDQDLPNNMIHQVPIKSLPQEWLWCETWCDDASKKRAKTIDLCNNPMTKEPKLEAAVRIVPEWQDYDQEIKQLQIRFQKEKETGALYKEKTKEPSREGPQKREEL
UniProt Q9NTW7: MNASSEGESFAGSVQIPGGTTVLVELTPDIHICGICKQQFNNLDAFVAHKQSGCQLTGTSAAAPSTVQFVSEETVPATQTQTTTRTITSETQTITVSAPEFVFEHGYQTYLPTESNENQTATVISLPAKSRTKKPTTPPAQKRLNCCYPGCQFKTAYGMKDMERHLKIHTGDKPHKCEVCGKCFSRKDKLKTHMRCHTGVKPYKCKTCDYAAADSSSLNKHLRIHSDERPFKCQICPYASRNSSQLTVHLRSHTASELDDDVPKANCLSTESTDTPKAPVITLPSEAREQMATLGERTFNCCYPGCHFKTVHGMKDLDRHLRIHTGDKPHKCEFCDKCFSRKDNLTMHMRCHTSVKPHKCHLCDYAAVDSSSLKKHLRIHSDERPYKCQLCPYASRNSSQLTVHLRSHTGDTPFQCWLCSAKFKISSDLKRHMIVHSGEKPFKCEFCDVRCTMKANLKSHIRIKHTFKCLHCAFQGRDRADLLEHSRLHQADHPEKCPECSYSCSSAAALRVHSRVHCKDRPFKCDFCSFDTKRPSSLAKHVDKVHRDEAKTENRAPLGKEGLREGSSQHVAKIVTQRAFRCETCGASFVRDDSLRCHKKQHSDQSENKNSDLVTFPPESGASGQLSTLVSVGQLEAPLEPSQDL
UniProt Q9NX55: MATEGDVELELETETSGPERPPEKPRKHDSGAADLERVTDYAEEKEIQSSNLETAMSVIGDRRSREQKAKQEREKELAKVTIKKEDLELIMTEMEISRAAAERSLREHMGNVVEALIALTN
UniProt Q9NWB6: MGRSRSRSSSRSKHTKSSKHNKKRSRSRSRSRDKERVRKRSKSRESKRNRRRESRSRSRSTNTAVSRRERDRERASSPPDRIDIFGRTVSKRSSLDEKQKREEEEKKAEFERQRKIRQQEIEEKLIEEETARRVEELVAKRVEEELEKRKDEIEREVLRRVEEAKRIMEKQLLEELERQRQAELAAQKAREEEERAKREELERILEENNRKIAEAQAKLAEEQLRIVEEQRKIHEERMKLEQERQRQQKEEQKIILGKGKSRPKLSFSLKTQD

Compound in this assay: Nc1ncnc2c1ncn2[C@@H]1O[C@H](COP(=O)(O)OP(=O)(O)OP(=O)(O)O)[C@@H](O)[C@H]1O [adenosine triphosphate]
As to the kind of experiment: NP40-soluble protein abundance relative to vehicle (solubility fold change) (ratio); higher = more soluble protein in presence of ATP. The method in brief: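 In three independent experiments, Jurkat crude lysate made by Dounce homogenisation was treated for 10 min at room temperature and then 3 min at 37 °C with eight concentrations ranging from 0.1 to 10 mM. It was then solubilised with 0.8% NP40 plus benzonase for 60 min at 4 °C and ultracentrifuged. The supernatant was TMT-labelled for LC-MS/MS, and each value is the fold change against the detergent-processed vehicle for the same replicate, using vsn-normalised intensities.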

As to OCIAD1 (UniProt Q9NX40), the NP40-soluble protein abundance runs as follows: (concentration: 0.1mM) 0.999 ± 0.023; (concentration: 0.5mM) 0.978 ± 0.021.
The like results for ACTR10 (UniProt Q9NZ32) were, in that order, 0.999 ± 0.025 and 0.998 ± 0.046.
The like results for UniProt Q9NR19 and related entries were, in that order, 0.97 ± 0.07 and 1.02 ± 0.049.
The like results for ZDHHC18 (UniProt Q9NUE0) were, in that order, 1.09 ± 0.085 and 1 ± 0.068.
For NLE1 (UniProt Q9NVX2), the NP40-soluble protein abundance reads like this: (concentration: 0.1mM) 1.04 ± 0.088; (concentration: 0.5mM) 0.989 ± 0.049.
The like results for CISD1 (UniProt Q9NZ45) were, in that order, 0.945 ± 0.068 and 0.947 ± 0.091.
The like results for RBM28 (UniProt Q9NW13) were, in that order, 1.02 ± 0.0049 and 1.11 ± 0.02.
The like results for STARD7 (UniProt Q9NQZ5) were, in that order, 0.992 ± 0.011 and 0.932 ± 0.026.
WDR70 (UniProt Q9NW82): the NP40-soluble protein abundance is 0.974 ± 0.056 (concentration: 0.1mM) and 1.02 ± 0.048 (concentration: 0.5mM).
With COMMD9 (UniProt Q9P000), the NP40-soluble protein abundance (concentration: 0.1mM) turned out to be 0.95 ± 0.024 and the NP40-soluble protein abundance (concentration: 0.5mM) was found to be 0.941 ± 0.03.
As to LANCL2 (UniProt Q9NS86), the NP40-soluble protein abundance is, setting by setting: (concentration: 0.1mM) 0.987 ± 0.048; (concentration: 0.5mM) 0.992 ± 0.047.
With MED4 (UniProt Q9NPJ6), the NP40-soluble protein abundance by setting is: (concentration: 0.1mM) 0.953 ± 0.07; (concentration: 0.5mM) 0.943 ± 0.038.
Consider HSPBP1 (UniProt Q9NZL4), for which the NP40-soluble protein abundance is, setting by setting: (concentration: 0.1mM) 0.942 ± 0.058; (concentration: 0.5mM) 0.903 ± 0.051.
The like results for POLE3 (UniProt Q9NRF9) were, in that order, 0.87 ± 0.21 and 0.859 ± 0.25.
The like results for UniProt Q9NX74 were, in that order, 1.04 ± 0.034 and 1.05 ± 0.14.
The like results for UniProt Q9NXF7 were, in that order, 0.993 ± 0.05 and 0.957 ± 0.11.
Consider UniProt Q9NYU2 and related entries, for which the NP40-soluble protein abundance by setting is: (concentration: 0.1mM) 1.07 ± 0.079; (concentration: 0.5mM) 1.06 ± 0.074.
With “Q9NPA5 and related entries (UniProt Q9NTW7)”, the NP40-soluble protein abundance reads like this: (concentration: 0.1mM) 1.02 ± 0.039; (concentration: 0.5mM) 1 ± 0.052.
For the target ABCB10 (UniProt Q9NRK6), the NP40-soluble protein abundance (concentration: 0.1mM) came out at 1.05 ± 0.058 and the NP40-soluble protein abundance (concentration: 0.5mM) was 1.04 ± 0.062.
The like results for TMEM9B (UniProt Q9NQ34) were, in that order, 0.985 ± 0.054 and 0.9 ± 0.038.
UniProt Q9NS23-4: the NP40-soluble protein abundance came out at 1.16 ± 0.045 (concentration: 0.1mM) and 1.16 ± 0.16 (concentration: 0.5mM).
The like results for MDN1 (UniProt Q9NU22) were, in that order, 1.08 ± 0.016 and 0.898 ± 0.018.
For MRPL17 (UniProt Q9NRX2), the NP40-soluble protein abundance reads like this: (concentration: 0.1mM) 0.914 ± 0.2; (concentration: 0.5mM) 0.853 ± 0.14; (concentration: 1mM) 1.08 ± 0.13; (concentration: 2mM) 0.934 ± 0.14; (concentration: 4mM) 0.939 ± 0.14; (concentration: 6mM) 0.916 ± 0.33. The NP40-soluble protein abundance (concentration: 8mM) is 0.93 ± 0.21 and the NP40-soluble protein abundance (concentration: 10mM) turned out to be 0.822 ± 0.18.
Consider BIN3 (UniProt Q9NQY0), for which the NP40-soluble protein abundance was found to be 0.873 ± 0.17 (concentration: 0.1mM) and 0.906 ± 0.22 (concentration: 0.5mM).
On to UniProt Q9NYP7 and related entries, for which the NP40-soluble protein abundance runs as follows: (concentration: 0.1mM) 1.09 ± 0.14; (concentration: 0.5mM) 1.04 ± 0.083; (concentration: 1mM) 1.07 ± 0.19; (concentration: 2mM) 1.05 ± 0.12; (concentration: 4mM) 1.05 ± 0.14; (concentration: 6mM) 0.94 ± 0.15. Besides, the NP40-soluble protein abundance reads like this: (concentration: 8mM) 1.09 ± 0.17; (concentration: 10mM) 1.01 ± 0.056.
On to UniProt Q9NZ08-2, for which the NP40-soluble protein abundance runs as follows: (concentration: 0.1mM) 1.01 ± 0.05; (concentration: 0.5mM) 1.01 ± 0.031.
The like results for UniProt Q9NX55 were, in that order, 0.985 ± 0.029 and 0.997 ± 0.029.
Consider UniProt Q9NW64, for which the NP40-soluble protein abundance was 1.03 ± 0.051 (concentration: 0.1mM); 1.05 ± 0.072 (concentration: 0.5mM); 1.05 ± 0.068 (concentration: 1mM); 1.04 ± 0.041 (concentration: 2mM); 1.07 ± 0.034 (concentration: 4mM); 1.09 ± 0.05 (concentration: 6mM). In addition, the NP40-soluble protein abundance runs as follows: (concentration: 8mM) 1.1 ± 0.049; (concentration: 10mM) 1.11 ± 0.019.
On to UniProt Q9NVR5, for which the NP40-soluble protein abundance runs as follows: (concentration: 0.1mM) 1.04 ± 0.067; (concentration: 0.5mM) 1.02 ± 0.022; (concentration: 1mM) 0.965 ± 0.028; (concentration: 2mM) 0.98 ± 0.039; (concentration: 4mM) 1 ± 0.047; (concentration: 6mM) 1.04 ± 0.065. Further, the NP40-soluble protein abundance amounted to 1.01 ± 0.12 (concentration: 8mM) and 0.967 ± 0.044 (concentration: 10mM).
For UniProt Q9P0L0 and related entries, the NP40-soluble protein abundance is, setting by setting: (concentration: 0.1mM) 0.988 ± 0.025; (concentration: 0.5mM) 0.997 ± 0.025.
In the case of ARGLU1 (UniProt Q9NWB6), the NP40-soluble protein abundance (concentration: 0.1mM) was determined as 1.03 ± 0.043; the NP40-soluble protein abundance (concentration: 0.5mM) stood at 1.45 ± 0.14; the NP40-soluble protein abundance (concentration: 1mM) came to 1.72 ± 0.14; the NP40-soluble protein abundance (concentration: 2mM) was determined as 1.86 ± 0.18; the NP40-soluble protein abundance (concentration: 4mM) was 2.03 ± 0.26; the NP40-soluble protein abundance (concentration: 6mM) was 2.27 ± 0.22. For the same target, the NP40-soluble protein abundance runs as follows: (concentration: 8mM) 2.33 ± 0.28; (concentration: 10mM) 2.44 ± 0.27.

These data come from the supplement of paper PMC6411743.
